The text below walks through data of PubChem BioAssay AID192 (DTP/NCI, 2004).

The list shows only some results of the screen, not a fair sample: it is rich in T/C values a quarter to a half above the control, in often repeated tests (any T/C) and in doses without a T/C. Further doses and runs are listed elsewhere. T/C: endpoint of the treated group in % of that of the vehicle group. Some entries give survivors of the animals treated and no T/C: the source holds a T/C of zero for them, seemingly a mark for toxic or unscored doses. Some survivor counts are full or nearly so, which does not show that the dose was tolerated: the source hardly ever lists a survival T/C far under the control, and the zero likely stands for such cases as well. Counts of survivors are from the toxicity check (mostly the fifth day) where no day follows; animals may have died later. Schedule codes are those of the source, taken here to give the interval after Q, in days (D) or hours (H), and the number of doses after X. Some entries were tested several times; the results are listed from low to high. Where survival is the endpoint, this PubChem deposit counts one and a half times the control or more as active, and values a quarter to a half above the control carry no call in these data; other NCI protocols may use other cut-offs.

This test relates to BDF1 mice, B16 melanoma ip, median survival T/C. The test is described as follows: NCI In Vivo Anticancer Drug Screen. Data for tumor model B16 Melanoma (intraperitoneal) in B6D2F1 (BDF1) mice. As to conditions: T/C endpoint: median survival time, higher T/C = longer survival. The method, then:
The antitumor activity of compounds was measured in mice bearing transplantable tumors. Survival or tumor size were measured and the results are expressed as the measurement made in the treated group (T) divided by the measurement made in the vehicle treated control group (C). The tumor model used in this assay is B16 Melanoma (intraperitoneal) in B6D2F1 (BDF1) mice

Where [1] appears, read: dose: 25.0 mg/kg/injection, schedule: Q01DX009 (ip), vehicle: Klucel (hydroxypropylcellulose) (HPC).
[2] abbreviates: dose: 50.0 mg/kg/injection, schedule: Q01DX009 (ip), vehicle: saline.
The mark [3] stands for this setting: dose: 64.0 mg/kg/injection, schedule: Q01DX009 (ip), vehicle: water.

Consider `CN(C)C1CCCCC1`, for which the survivor count under setting [1] is 8 of 10.

Turning to `COC(=O)C1CCC(C(=O)O)CC1` (stereo not given), under “dose: 400.0 mg/kg/injection, schedule: Q04DX003 (ip), vehicle: Klucel (hydroxypropylcellulose) (HPC)”, the survivor count is 9 of 10.

For `Cc1ccc(S(=O)(=O)[O][Pb]([CH3])([CH3])[CH3])cc1`, the survivor count (dose: 3.0 mg/kg/injection, schedule: Q01DX009 (ip), vehicle: saline) is listed as 10 of 10; the survivor count (dose: 6.0 mg/kg/injection, schedule: Q01DX009 (ip), vehicle: saline) is given as 10 of 10; the survivor count (dose: 12.0 mg/kg/injection, schedule: Q01DX009 (ip), vehicle: saline) was 7 of 10.

For the compound `Nc1ccc(C(=O)O)c(O)c1`, where the note is “dose: 4.7 mg/kg/injection, schedule: Q01DX009 (ip), vehicle: saline with Tween-80”, the survivor count is given as 10 of 10.

For `CCNCCCCCCNCC`, the survivor count under setting [2] was 10 of 10.

In the case of `CC(C)CCCCCCCCCCCCC(=O)NCC(=O)NC1C(O)C(O)C(Nc2ncnc3nc[nH]c23)OC1C(O)CO` (stereo not given), the T/C reads like this: (dose: 0.25 mg/kg/injection, schedule: Q01DX009 (ip), vehicle: saline) 131 % of control; (dose: 0.5 mg/kg/injection, schedule: Q01DX009 (ip), vehicle: Klucel (hydroxypropylcellulose) (HPC)) 140 % of control; (dose: 0.5 mg/kg/injection, schedule: Q01DX009 (ip), vehicle: saline) 138 and 142 % of control; (dose: 0.75 mg/kg/injection, schedule: Q01DX009 (ip), vehicle: saline) 148 % of control; (dose: 1.0 mg/kg/injection, schedule: Q01DX009 (ip), vehicle: Klucel (hydroxypropylcellulose) (HPC)) 141 % of control; (dose: 1.0 mg/kg/injection, schedule: Q01DX009 (ip), vehicle: saline) 149 % of control. Also, the survivor count (dose: 1.5 mg/kg/injection, schedule: Q01DX009 (ip), vehicle: saline) is recorded as 10 of 10; the survivor count (dose: 2.0 mg/kg/injection, schedule: Q01DX009 (ip), vehicle: Klucel (hydroxypropylcellulose) (HPC)) is 10 of 10; the survivor count (dose: 2.0 mg/kg/injection, schedule: Q01DX009 (ip), vehicle: saline) is reported as 10 of 10; the survivor count (dose: 4.0 mg/kg/injection, schedule: Q01DX009 (ip), vehicle: Klucel (hydroxypropylcellulose) (HPC)) is listed as 10 of 10; the survivor count (dose: 4.0 mg/kg/injection, schedule: Q01DX009 (ip), vehicle: saline) is reported as 10 of 10; the survivor count (dose: 8.0 mg/kg/injection, schedule: Q01DX009 (ip), vehicle: Klucel (hydroxypropylcellulose) (HPC)) is 10 of 10. Moreover, the survivor count (dose: 8.0 mg/kg/injection, schedule: Q01DX009 (ip), vehicle: saline) is on record as 8 of 10; the survivor count (dose: 1000.0 micrograms/kg/injection, schedule: Q01DX009 (ip), vehicle: saline) is 10 of 10; the survivor count (dose: 2000.0 micrograms/kg/injection, schedule: Q01DX009 (ip), vehicle: saline) is 10 of 10.

Turning to `C1CC[N-]CC1.CC(=N\O)/C(C)=N/O.CC(=N\O)/C(C)=N/O.[CH-]1CCCCC1.[Co+2]`, the survivor count (dose: 200.0 mg/kg/injection, schedule: Q01DX009 (ip), vehicle: Klucel (hydroxypropylcellulose) (HPC)) is listed as 9 of 10.

As to `CCC(=O)c1ccccc1N`, the survivor count (dose: 400.0 mg/kg/injection, schedule: Q01DX009 (ip), vehicle: Klucel (hydroxypropylcellulose) (HPC)) was 4 of 10.

Turning to `C=C1C(=O)O[C@@H]2/C=C(\C)CC/C=C(/COC(C)=O)C[C@@H](OC(C)=O)[C@@H]12`, the survivor count was 9 of 10 (dose: 4.5 mg/kg/injection, schedule: Q01DX009 (ip), vehicle: acetone) and 10 of 10 (dose: 9.0 mg/kg/injection, schedule: Q01DX009 (ip), vehicle: acetone). Further, the T/C (dose: 36.0 mg/kg/injection, schedule: Q01DX009 (ip), vehicle: acetone) is 139 % of control.

Regarding `O=C1NC(=O)c2ccccc21`, under “dose: 100.0 mg/kg/injection, schedule: Q01DX009 (ip), vehicle: saline”, the survivor count is 10 of 10.

Regarding `Fc1ccc(/C=C2/c3cc(Cl)ccc3-c3c(Cl)cc(Cl)cc32)cc1`, the survivor count (dose: 50.0 mg/kg/injection, schedule: Q01DX009 (ip), vehicle: saline with Tween-80) is listed as 6 of 6.

`COC(=O)c1cc([N+](=O)[O-])cc([N+](=O)[O-])c1Br`: the survivor count is 10 of 10 (dose: 3.0 mg/kg/injection, schedule: Q01DX009 (ip), vehicle: Klucel (hydroxypropylcellulose) (HPC)); 10 of 10 (dose: 6.0 mg/kg/injection, schedule: Q01DX009 (ip), vehicle: Klucel (hydroxypropylcellulose) (HPC)); 10 of 10 (dose: 12.0 mg/kg/injection, schedule: Q01DX009 (ip), vehicle: Klucel (hydroxypropylcellulose) (HPC)); 10 of 10 (dose: 12.5 mg/kg/injection, schedule: Q01DX009 (ip), vehicle: Klucel (hydroxypropylcellulose) (HPC)); 10 of 10 under setting [1]; 10 of 10 (dose: 50.0 mg/kg/injection, schedule: Q01DX009 (ip), vehicle: Klucel (hydroxypropylcellulose) (HPC)).

In the case of `C1CC[N-]CC1.C1CC[N-]CC1.CS(C)=O.[Cl][Rh]([Cl])[Cl]`, the survivor count is 4 of 10 (dose: 20.0 mg/kg/injection, schedule: Q01DX009 (ip), vehicle: saline with Tween-80) and 1 of 10 (dose: 40.0 mg/kg/injection, schedule: Q01DX009 (ip), vehicle: saline with Tween-80).

In the case of `COc1ccc(NC(=S)Nc2ccccn2)cc1`, the survivor count (dose: 400.0 mg/kg/injection, schedule: Q01DX009 (ip), vehicle: saline with Tween-80) is on record as 6 of 6.

Regarding `COc1cc2cc3c4cc(OC)c(OC)cc4cc[n+]3c(C)c2cc1OC` (tested in a mixture with another compound), the T/C runs as follows: under setting [2], 125 % of control; under setting [3], 125 % of control. In addition, the survivor count was 10 of 10 (dose: 64.0 mg/kg/injection, schedule: Q01DX009 (ip), vehicle: clinical formulation); 10 of 10 (dose: 64.0 mg/kg/injection, schedule: Q01DX009 (ip), vehicle: other); 10 of 10 under setting [3]; 10 of 10 (dose: 100.0 mg/kg/injection, schedule: Q04DX003 (ip), vehicle: saline with Tween-80); 9 of 10 (dose: 128.0 mg/kg/injection, schedule: Q01DX009 (ip), vehicle: Klucel (hydroxypropylcellulose) (HPC)); 1 of 10 and 8 of 10 (dose: 128.0 mg/kg/injection, schedule: Q01DX009 (ip), vehicle: clinical formulation). Also, the survivor count was 5 of 10, 7 of 10, 10 of 10 (dose: 128.0 mg/kg/injection, schedule: Q01DX009 (ip), vehicle: other); 7 of 10 and 8 of 10 (dose: 128.0 mg/kg/injection, schedule: Q01DX009 (ip), vehicle: water); 10 of 10 (dose: 200.0 mg/kg/injection, schedule: Q01DX009 (ip), vehicle: saline); 8 of 10 (dose: 200.0 mg/kg/injection, schedule: Q01DX009 (ip), vehicle: water); 0 of 10 (dose: 250.0 mg/kg/injection, schedule: Q01DX009 (ip), vehicle: other); 0 of 10 and 2 of 10 (dose: 256.0 mg/kg/injection, schedule: Q01DX009 (ip), vehicle: Klucel (hydroxypropylcellulose) (HPC)). Also, the survivor count (dose: 256.0 mg/kg/injection, schedule: Q01DX009 (ip), vehicle: clinical formulation) is 0 of 10; the survivor count (dose: 256.0 mg/kg/injection, schedule: Q01DX009 (ip), vehicle: other) is 0 of 10; the survivor count (dose: 256.0 mg/kg/injection, schedule: Q01DX009 (ip), vehicle: water) was 0 of 10 and 1 of 10.
